These are yes or no findings as the source states them, for the method shown. Binding seen in cells or lysates may run through a third protein.
Target: GST–PBD^+ (Polo-box domain of Plk1), immobilised (human)
Assay: pull-down; 10 µg immobilised GST–PBD^+ with about 650 µg HeLa lysate, 12–15 h at 4°C; cells blocked with nocodazole and treated with DMSO, 22.5 µM purvalanol A or 100 nM BI-2536; only the target purified

binding: no binding
B1: HsCyk-4/MgcRacGAP, endogenous (protein, UniProt Q9H0H5 1-632)
chain: MDTMMLNVRNLFEQLVRRVEILSEGNEVQFIQLAKDFEDFRKKWQRTDHELGKYKDLLMKAETERSALDVKLKHARNQVDVEIKRRQRAEADCEKLERQIQLIREMLMCDTSGSIQLSEEQKSALAFLNRGQPSSSNAGNKRLSTIDESGSILSDISFDKTDESLDWDSSLVKTFKLKKREKRRSTSRQFVDGPPGPVKKTRSIGSAVDQGNESIVAKTTVTVPNDGGPIEAVSTIETVPYWTRSRRKTGTLQPWNSDSTLNSRQLEPRTETDSVGTPQSNGGMRLHDFVSKTVIKPESCVPCGKRIKFGKLSLKCRDCRVVSHPECRDRCPLPCIPTLIGTPVKIGEGMLADFVSQTSPMIPSIVVHCVNEIEQRGLTETGLYRISGCDRTVKELKEKFLRVKTVPLLSKVDDIHAICSLLKDFLRNLKEPLLTFRLNRAFMEAAEITDEDNSIAAMYQAVGELPQANRDTLAFLMIHLQRVAQSPHTKMDVANLAKVFGPTIVAHAVPNPDPVTMLQDIKRQPKVVERLLSLPLEYWSQFMMVEQENIDPLHVIENSNAFSTPQTPDIKVSLLGPVTTPEHQLLKTPSSSSLSQRVRSTLTKNTPRFGSKSKSATNLGRQGNFFASPMLK

From PMC2680334, “Polo-Like Kinase 1 Directs Assembly of the HsCyk-4 RhoGAP/Ect2 RhoGEF Complex to Initiate Cleavage Furrow Formation” (PLoS Biology, 2009)
